Common to all, as to conditions: yeast three-hybrid, YBZ-1, SC-Leu-His + 0.5 mM 3-AT, 4 days
The target in test [1] is T1, PUM1 PUF domain R1-QFR R2-VFQ R7-NPG S863Q + R864F + Q867R + N899V + Y900F + S1079N + N1080P + E1083G (UniProt Q14671).
T1 sequence: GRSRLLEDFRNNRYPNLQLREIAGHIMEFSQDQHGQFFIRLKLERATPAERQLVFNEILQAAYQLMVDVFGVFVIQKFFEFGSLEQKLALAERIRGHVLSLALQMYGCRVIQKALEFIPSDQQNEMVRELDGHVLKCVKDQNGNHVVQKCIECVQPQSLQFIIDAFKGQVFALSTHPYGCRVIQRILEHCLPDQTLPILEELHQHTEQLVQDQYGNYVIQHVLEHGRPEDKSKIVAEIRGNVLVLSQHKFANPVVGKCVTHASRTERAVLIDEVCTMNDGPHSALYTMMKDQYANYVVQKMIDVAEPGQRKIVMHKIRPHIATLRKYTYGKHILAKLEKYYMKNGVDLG

Test [2] addresses T2, PUM1 PUF domain R2-VFQ R3-THE R4-TFR N899V + Y900F + C935T + R936H + Q939E + N971T + H972F + Q975R (UniProt Q14671).
T2 sequence: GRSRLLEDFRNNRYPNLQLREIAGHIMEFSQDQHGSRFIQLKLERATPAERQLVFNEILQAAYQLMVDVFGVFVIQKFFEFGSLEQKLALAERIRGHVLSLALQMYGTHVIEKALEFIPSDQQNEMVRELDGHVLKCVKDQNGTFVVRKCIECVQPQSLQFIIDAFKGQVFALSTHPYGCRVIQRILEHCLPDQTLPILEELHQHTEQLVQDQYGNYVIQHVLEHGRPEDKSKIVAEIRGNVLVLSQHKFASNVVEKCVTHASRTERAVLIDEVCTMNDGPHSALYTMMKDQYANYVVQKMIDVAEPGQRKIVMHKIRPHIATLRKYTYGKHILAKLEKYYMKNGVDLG

Test [3] deals with T3, PUM1 PUF domain R3-THE R4-TFR C935T + R936H + Q939E + N971T + H972F + Q975R (UniProt Q14671).
T3 sequence: T2 sequence with V72N, F73Y

Test [4] deals with T4, PUM1 PUF domain R3-THE R4-TFR R7-NPG C935T + R936H + Q939E + N971T + H972F + Q975R + S1079N + N1080P + E1083G (UniProt Q14671).
T4 sequence: T2 sequence with V72N, F73Y, S252N, N253P, E256G

Test [5] deals with T5, PUM1 PUF domain R5-PHQ R6-SWD C1007P + R1008H + N1043S + Y1044W + Q1047D (UniProt Q14671).
T5 sequence: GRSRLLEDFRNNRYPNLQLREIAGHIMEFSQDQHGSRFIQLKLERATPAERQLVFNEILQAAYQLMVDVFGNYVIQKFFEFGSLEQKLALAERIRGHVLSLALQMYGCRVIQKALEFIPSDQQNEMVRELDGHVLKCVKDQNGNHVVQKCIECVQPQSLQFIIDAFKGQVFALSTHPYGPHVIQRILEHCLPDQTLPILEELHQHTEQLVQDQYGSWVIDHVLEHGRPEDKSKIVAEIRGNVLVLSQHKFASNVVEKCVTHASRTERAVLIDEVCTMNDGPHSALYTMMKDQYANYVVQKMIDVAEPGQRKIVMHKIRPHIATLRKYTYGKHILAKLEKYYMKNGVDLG

Test [6] has as its target T6, PUM1 PUF domain R6-SWD R7-NPG N1043S + Y1044W + Q1047D + S1079N + N1080P + E1083G (Homo sapiens) (UniProt Q14671).
T6 sequence: T5 sequence with P180C, H181R, S252N, N253P, E256G

For test [7], the target named is T7, PUM1 PUF domain R3-THE R4-TFR R7-NPG C935T + R936H + Q939E + N971T + H972F + Q975R + S1079N + N1080P + E1083G (Homo sapiens) (UniProt Q14671).
T7 sequence: T2 sequence with V72N, F73Y, S252N, N253P, E256G

Test [8] addresses T8, PUM1 PUF domain R6-SWD R7-NPG N1043S + Y1044W + Q1047D + S1079N + N1080P + E1083G (UniProt Q14671).
T8 sequence: T5 sequence with P180C, H181R, S252N, N253P, E256G

Substitutions are numbered along the chain they refer to. This is one part of the list. For part of these data: At the low end of the ranking the order means little. For part of these data: Construct or isoform of the protein are uncertain.

Turning to “GGCUAGAACUAGUGGAUCCCCCGGCGCCCGGCGGCUCGAGCCCGGGUAAGUUUAAUUAGUCUGCAUGCCGCCGGGCGCCAUGCCUGCAGGUCGACUCUAGAAAACAUG”, the binding signal (log2 enrichment (interaction score)) in test [1] was -5.94; in test [2], -5.16; in test [3], -6.78; in test [4], -2.54; in test [5] it was -8.63; in test [6], -1.04.
Turning to “GGCUAGAACUAGUGGAUCCCCCGGCGCCCGGCGGCUCGAGCCCGGGUAAGUGGAUAUCGUCUGCAUGCCGCCGGGCGCCAUGCCUGCAGGUCGACUCUAGAAAACAUG”, the binding signal (log2 enrichment (interaction score)) in test [1] is < -6.45; in test [2], -5.75; in test [3], -7.08; in test [4], < -2.11; in test [5], < -7.63.
In the case of “GGCUAGAACUAGUGGAUCCCCCGGCGCCCGGCGGCUCGAGCCCGGGUAAGUUUACUUAGUCUGCAUGCCGCCGGGCGCCAUGCCUGCAGGUCGACUCUAGAAAACAUG”, the binding signal (log2 enrichment (interaction score)) in test [1] is -5.63; in test [2] it was -4.18; in test [3], -7.35; in test [7], -1.32; in test [5], -8.02; in test [6] it was -1.6.
In the case of “GGCUAGAACUAGUGGAUCCCCCGGCGCCCGGCGGCUCGAGCCCGGGUAAGUUUAGAUAGUCUGCAUGCCGCCGGGCGCCAUGCCUGCAGGUCGACUCUAGAAAACAUG”, the binding signal (log2 enrichment (interaction score)) is < -6.74 in test [1]; -5.59 in test [2]; < -6.78 in test [3]; < -1.27 in test [7]; -8.38 in test [5]; -2.39 in test [8].
With “GGCUAGAACUAGUGGAUCCCCCGGCGCCCGGCGGCUCGAGCCCGGGUAAGUGGAAACUGUCUGCAUGCCGCCGGGCGCCAUGCCUGCAGGUCGACUCUAGAAAACAUG”, the binding signal (log2 enrichment (interaction score)) in test [1] is -6.29; in test [2], -5.65; in test [3] it was -6.55; in test [5] it was -7.64.
For the sequence “GGCUAGAACUAGUGGAUCCCCCGGCGCCCGGCGGCUCGAGCCCGGGUAAGUGUAAGUUGUCUGCAUGCCGCCGGGCGCCAUGCCUGCAGGUCGACUCUAGAAAACAUG”, the binding signal (log2 enrichment (interaction score)) in test [1] is -5.24; in test [2], -6.05; in test [3], < -8.05; in test [8], < -2.45.
“GGCUAGAACUAGUGGAUCCCCCGGCGCCCGGCGGCUCGAGCCCGGGUAAGUGGAAAUCGUCUGCAUGCCGCCGGGCGCCAUGCCUGCAGGUCGACUCUAGAAAACAUG”: the binding signal (log2 enrichment (interaction score)) is -5.3 in test [1]; -5.46 in test [2]; -6.83 in test [3]; -6.78 in test [5]; -1 in test [6].
On the same counts, the results for “GGCUAGAACUAGUGGAUCCCCCGGCGCCCGGCGGCUCGAGCCCGGGUAAGUUGAAGCAGUCUGCAUGCCGCCGGGCGCCAUGCCUGCAGGUCGACUCUAGAAAACAUG” are -6, -5.4, -6.94, -6.95 and -0.42.
On the same counts, the results for “GGCUAGAACUAGUGGAUCCCCCGGCGCCCGGCGGCUCGAGCCCGGGUAAGUUCAAGUAGUCUGCAUGCCGCCGGGCGCCAUGCCUGCAGGUCGACUCUAGAAAACAUG” are -6.3, -6.1, -7.32, -7.79 and -1.51.
“GGCUAGAACUAGUGGAUCCCCCGGCGCCCGGCGGCUCGAGCCCGGGUAAGUGUAACUCGUCUGCAUGCCGCCGGGCGCCAUGCCUGCAGGUCGACUCUAGAAAACAUG”: the binding signal (log2 enrichment (interaction score)) was -5.71 in test [1], -3.93 in test [2], < -6.86 in test [3] and < -8.39 in test [5].
On the same counts, the results for “GGCUAGAACUAGUGGAUCCCCCGGCGCCCGGCGGCUCGAGCCCGGGUAAGUUUAAGUUGUCUGCAUGCCGCCGGGCGCCAUGCCUGCAGGUCGACUCUAGAAAACAUG” are -6.4, -4.64, < -7.45 and < -8.24.
Turning to “GGCUAGAACUAGUGGAUCCCCCGGCGCCCGGCGGCUCGAGCCCGGGUAAGUAGAAGUUGUCUGCAUGCCGCCGGGCGCCAUGCCUGCAGGUCGACUCUAGAAAACAUG”, the binding signal (log2 enrichment (interaction score)) is -5.89 in test [1], -5.4 in test [2], -7.22 in test [3] and -7.92 in test [5].
As to “GGCUAGAACUAGUGGAUCCCCCGGCGCCCGGCGGCUCGAGCCCGGGUAAGAUUAAGCAGUCUGCAUGCCGCCGGGCGCCAUGCCUGCAGGUCGACUCUAGAAAACAUG”, the binding signal (log2 enrichment (interaction score)) in test [1] was < -6.5; in test [2], -5.83; in test [3], < -6.89; in test [5] it was < -7.67.
For “GGCUAGAACUAGUGGAUCCCCCGGCGCCCGGCGGCUCGAGCCCGGGUAAGCGGAAGAAGUCUGCAUGCCGCCGGGCGCCAUGCCUGCAGGUCGACUCUAGAAAACAUG”, in that order: < -5.62, -5.32, < -6.14 and < -8.31.
For the sequence “GGCUAGAACUAGUGGAUCCCCCGGCGCCCGGCGGCUCGAGCCCGGGUAAGAGGAAGAAGUCUGCAUGCCGCCGGGCGCCAUGCCUGCAGGUCGACUCUAGAAAACAUG”, the binding signal (log2 enrichment (interaction score)) in test [1] is -6.23; in test [2] it was -5.31; in test [3], -4.05; in test [5] it was < -7.54; in test [6], -1.63.
For “GGCUAGAACUAGUGGAUCCCCCGGCGCCCGGCGGCUCGAGCCCGGGUAAGUGGACGCAGUCUGCAUGCCGCCGGGCGCCAUGCCUGCAGGUCGACUCUAGAAAACAUG”, in that order: -6.85, -5.34, -7.28, -8.78 and -0.57.
Turning to “GGCUAGAACUAGUGGAUCCCCCGGCGCCCGGCGGCUCGAGCCCGGGUAAGUUAACAUAGUCUGCAUGCCGCCGGGCGCCAUGCCUGCAGGUCGACUCUAGAAAACAUG”, the binding signal (log2 enrichment (interaction score)) in test [1] was < -7.26; in test [2], -6.01; in test [3], -8.86; in test [5], -8.2; in test [8], -2.18.

The values are drawn from paper PMC8384837.
